This is an account of results in paper doi:10.1101/281196.

Protein sequences, listed by entry. Tags and fused reporters are not part of them.
UniProt Q14676: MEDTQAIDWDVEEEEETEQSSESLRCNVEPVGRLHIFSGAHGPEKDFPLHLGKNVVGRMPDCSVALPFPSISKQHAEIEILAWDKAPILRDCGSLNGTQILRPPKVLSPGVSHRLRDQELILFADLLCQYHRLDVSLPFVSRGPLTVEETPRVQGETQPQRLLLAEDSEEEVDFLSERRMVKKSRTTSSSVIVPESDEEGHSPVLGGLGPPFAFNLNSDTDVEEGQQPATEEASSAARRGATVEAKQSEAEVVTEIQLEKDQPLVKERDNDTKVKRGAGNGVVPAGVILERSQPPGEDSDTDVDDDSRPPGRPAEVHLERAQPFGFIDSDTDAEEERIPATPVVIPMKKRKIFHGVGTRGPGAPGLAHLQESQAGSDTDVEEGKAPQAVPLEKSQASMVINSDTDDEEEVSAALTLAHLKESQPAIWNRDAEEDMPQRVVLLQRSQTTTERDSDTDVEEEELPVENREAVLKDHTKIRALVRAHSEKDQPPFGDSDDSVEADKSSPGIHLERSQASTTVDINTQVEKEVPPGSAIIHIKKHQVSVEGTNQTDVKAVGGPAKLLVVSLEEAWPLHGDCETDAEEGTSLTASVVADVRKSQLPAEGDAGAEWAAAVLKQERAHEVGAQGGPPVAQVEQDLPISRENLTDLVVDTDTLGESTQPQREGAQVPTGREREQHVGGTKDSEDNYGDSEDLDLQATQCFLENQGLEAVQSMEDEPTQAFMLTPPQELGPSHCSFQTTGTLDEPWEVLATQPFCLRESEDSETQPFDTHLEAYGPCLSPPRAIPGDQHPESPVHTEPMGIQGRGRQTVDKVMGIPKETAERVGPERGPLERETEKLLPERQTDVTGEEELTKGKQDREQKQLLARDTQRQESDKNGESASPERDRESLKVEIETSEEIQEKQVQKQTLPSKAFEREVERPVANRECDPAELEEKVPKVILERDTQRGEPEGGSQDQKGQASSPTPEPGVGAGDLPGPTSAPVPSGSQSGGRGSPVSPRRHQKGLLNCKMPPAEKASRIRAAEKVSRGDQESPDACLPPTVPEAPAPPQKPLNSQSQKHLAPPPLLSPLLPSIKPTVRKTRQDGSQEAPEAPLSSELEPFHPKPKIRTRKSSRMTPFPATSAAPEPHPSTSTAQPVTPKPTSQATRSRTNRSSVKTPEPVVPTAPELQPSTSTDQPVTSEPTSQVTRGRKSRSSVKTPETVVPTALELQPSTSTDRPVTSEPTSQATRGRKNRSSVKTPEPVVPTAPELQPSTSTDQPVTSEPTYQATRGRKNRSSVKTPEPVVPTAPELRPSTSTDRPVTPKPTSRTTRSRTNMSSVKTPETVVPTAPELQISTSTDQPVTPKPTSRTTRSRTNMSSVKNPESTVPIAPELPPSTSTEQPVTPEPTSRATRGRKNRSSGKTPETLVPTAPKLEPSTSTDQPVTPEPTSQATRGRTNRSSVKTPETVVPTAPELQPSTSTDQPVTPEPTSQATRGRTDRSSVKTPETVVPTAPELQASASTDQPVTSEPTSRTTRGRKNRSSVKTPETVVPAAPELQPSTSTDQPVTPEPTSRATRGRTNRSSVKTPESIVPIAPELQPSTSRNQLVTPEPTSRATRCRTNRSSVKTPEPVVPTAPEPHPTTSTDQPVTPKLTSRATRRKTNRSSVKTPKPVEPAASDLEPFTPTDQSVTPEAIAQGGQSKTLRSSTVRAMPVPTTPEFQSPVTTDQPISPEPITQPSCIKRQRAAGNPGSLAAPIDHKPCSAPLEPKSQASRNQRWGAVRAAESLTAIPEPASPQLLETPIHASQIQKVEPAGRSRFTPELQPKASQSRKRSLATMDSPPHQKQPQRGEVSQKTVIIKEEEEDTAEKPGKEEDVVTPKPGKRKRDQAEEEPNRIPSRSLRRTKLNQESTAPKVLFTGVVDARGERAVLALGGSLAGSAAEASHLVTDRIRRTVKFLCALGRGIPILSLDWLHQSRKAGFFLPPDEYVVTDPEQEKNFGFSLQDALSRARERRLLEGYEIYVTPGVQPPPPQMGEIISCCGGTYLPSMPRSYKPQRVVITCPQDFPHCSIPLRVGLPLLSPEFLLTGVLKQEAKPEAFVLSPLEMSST

Assay [1] has as its target T1, Inhibitor of Differentiation 4 (ID4) (human (endogenous in HCC70, MDA-MB-468, HCC1954, OVKATE and PDX tumours)) (UniProt P47928).
T1 sequence: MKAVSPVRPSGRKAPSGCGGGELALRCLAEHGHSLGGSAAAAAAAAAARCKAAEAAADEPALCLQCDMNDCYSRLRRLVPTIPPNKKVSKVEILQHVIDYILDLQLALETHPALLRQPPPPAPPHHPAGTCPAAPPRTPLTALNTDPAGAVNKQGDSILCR
Put plainly: proximity ligation.

In assay [2] the target is T1, Inhibitor of Differentiation 4 (ID4) (human (endogenous in HCC70, MDA-MB-468, HCC1954, OVKATE and PDX tumours)). As to the kind of experiment: co-IP.

No constants are given. Whether binding was seen depends on the method and setting. Binding seen in cells or lysates may run through a third protein. Some entries that bind do so weakly or less than the wild type.

For the substance “mediator of DNA damage checkpoint protein 1 (MDC1) (from UniProt Q14676 1-2089)”, the binding result in assay [1] and in assay [2] was “binds” throughout.
